No constants are given. Whether binding was seen depends on the method and setting. In cells and extracts the contact can be indirect.
Target: T1, Dosmit (downsizing mitochondria), endogenous in S2 cells (Drosophila melanogaster (endogenous in S2 cells)) (UniProt Q9VAM6)
T1 sequence: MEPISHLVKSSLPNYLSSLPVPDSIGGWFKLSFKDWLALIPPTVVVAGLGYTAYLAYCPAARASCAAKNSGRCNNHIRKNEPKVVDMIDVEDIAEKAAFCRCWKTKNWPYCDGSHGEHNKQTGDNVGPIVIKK
Assay: co-IP; lysate of S2 cells transfected with Rab32-HA or Hsc70-5-HA; immunoprecipitation of endogenous Dosmit with anti-Dosmit antibody and protein G Mag Sepharose beads, 4 °C; lysis buffer 50 mM Tris-HCl pH 8.0, 100 mM NaCl, 5 mM EDTA, 0.5% Nonidet P-40; blot for HA

Sequences of proteins named here, by UniProt entry; tags and fusion partners are left off.
UniProt P29845: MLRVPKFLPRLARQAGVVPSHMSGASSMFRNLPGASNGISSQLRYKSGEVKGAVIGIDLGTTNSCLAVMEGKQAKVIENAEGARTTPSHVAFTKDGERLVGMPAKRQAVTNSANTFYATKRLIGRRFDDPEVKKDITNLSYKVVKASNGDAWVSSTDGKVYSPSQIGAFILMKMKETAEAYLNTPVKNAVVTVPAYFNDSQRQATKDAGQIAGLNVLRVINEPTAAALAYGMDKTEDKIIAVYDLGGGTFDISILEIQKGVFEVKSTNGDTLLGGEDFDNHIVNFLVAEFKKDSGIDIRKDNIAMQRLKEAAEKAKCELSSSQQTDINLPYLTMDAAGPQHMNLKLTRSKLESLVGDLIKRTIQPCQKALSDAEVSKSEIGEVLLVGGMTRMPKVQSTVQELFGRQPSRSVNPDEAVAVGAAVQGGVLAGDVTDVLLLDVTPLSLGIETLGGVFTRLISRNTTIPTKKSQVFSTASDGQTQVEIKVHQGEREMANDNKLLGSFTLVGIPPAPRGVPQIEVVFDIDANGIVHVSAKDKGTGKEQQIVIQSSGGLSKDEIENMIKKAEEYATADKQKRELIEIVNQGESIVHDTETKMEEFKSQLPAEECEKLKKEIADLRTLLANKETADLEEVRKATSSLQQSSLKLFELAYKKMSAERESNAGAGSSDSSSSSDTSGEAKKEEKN

## Hsc70-5-HA (from UniProt P29845 1-686)
  binding: no binding
